Measured values reported in PubChem BioAssay AID540256 (National Center for Advancing Translational Sciences (NCATS), 2011).
The whole screen tested about 300,000 compounds, of which about 3,700 (1.2%) were called active. The inconclusive results got no clear call from the source; some entries with a clear call stand among them for comparison. Calls come from the whole dose curve; tested in HEK293 cells. Potencies beside an inconclusive call are fits to weak or partial responses and may not hold up.
Potency is the fitted concentration of half-maximal effect.

Experiment: qHTS for Inhibitors of binding or entry into cells for Lassa Virus; note: nearly all actives have a fitted effect of over 50% in size
Settings: Lassa virus pseudotype entry inhibition, cell reporter; series mostly up to 37.9 µM
With CCOC(=O)CNC(=O)O[C@@H]1C(=O)c2cc(OC)ccc2O[C@H]1c1ccc(OC)c(Br)c1 the Potency was inconclusive: 0.376 µM [inhibitor, partial curve, poor fit].
With CCCCn1c(N)c(N(CCC(C)C)C(=O)COC(=O)Cc2ccc(Cl)cc2)c(=O)[nH]c1=O the Potency was inconclusive: 20 µM [inhibitor, single point].
With O=C(/C=C/c1ccccc1)CC(=O)c1ccccc1O the Potency was “inactive”.
In the case of COc1ccc2cc(-c3[nH]ncc3CN3C[C@@H]4CCC[C@H]3C4)ccc2c1, the Potency is reported as “inactive”.
In the case of CCN(CC)CCNC(=O)C1CCC(=O)N(c2ccc(OC)cc2)C1c1ccc(F)cc1 (configuration not stated), the Potency is reported as “inactive”.
With CC(C)[C@H](NC(N)=O)C(=O)Nc1cccc(S(=O)(=O)N2CCOCC2)c1 the Potency was inconclusive: 22.4 µM [activator, single point].
For Cc1ccc([N+](=O)[O-])cc1NC(=O)C(Sc1ccccc1)c1ccccc1 (configuration not stated), the Potency was inconclusive: 11.2 µM [inhibitor, partial curve, poor fit].
In the case of COc1ccc(-c2nc(C#N)c(NCc3ccc(C)cc3)o2)cc1OC, the Potency is reported as “inactive”.
In the case of CCOc1ccc(-c2nnc(N)o2)cc1, the Potency is reported as inconclusive: 5.01 µM [activator, full curve, poor fit].
With CN(Cc1ccccc1)S(=O)(=O)c1ccc2c(c1)CCC(=O)N2 the Potency was inconclusive: 12.6 µM [inhibitor, single point].
In the case of CNS(=O)(=O)c1cn(CC(=O)Nc2ccc(C)c(N(C)C)c2)cc1S(=O)(=O)NC, the Potency is reported as “inactive”.
For Cc1ccc(NC(=O)COC(=O)CNC(=O)c2cccc([N+](=O)[O-])c2)cc1S(=O)(=O)N1CCCCCC1, the Potency was inconclusive: 0.891 µM [activator, partial curve, poor fit].
In the case of C/C(CCN1CCCCc2nc(C)c(C)cc21)=N\O[C@@H](C)CN1CCCCc2nc(C)c(C)cc21, the Potency is reported as inconclusive: 29.1 µM [inhibitor, single point].
In the case of CC1(C)NC(=O)N(CC(O)COc2ccccc2-c2ccccc2)C1=O (configuration not stated), the Potency is reported as inconclusive: 0.206 µM [inhibitor, full curve, poor fit].
In the case of CCOC(=O)c1cnc2ccc(C(=O)OC)cc2c1NCCc1ccc(OC)c(OC)c1, the Potency is reported as inconclusive: 35.5 µM [inhibitor, single point].
In the case of CCN(C(=O)c1cc(S(=O)(=O)N2CCc3ccccc32)cn1C)c1cccc(C)c1, the Potency is reported as inconclusive: 35.5 µM [inhibitor, single point].
With CC(C)(C)c1ccc(-c2csc(NC(=O)CN3C(=O)NC4(CCCCC4)C3=O)n2)cc1 the Potency was inconclusive: 35.5 µM [inhibitor, single point].
For CCCC(=O)NCc1ccccc1Cl, the Potency was inconclusive: 12.6 µM [activator, single point].
With Cc1ccc(NC(=O)COC(=O)Cn2cnc3c2c(=O)n(C)c(=O)n3C)cc1Cl the Potency was inconclusive: 35.5 µM [activator, single point].
With CC1=C(C(=O)Nc2ccc(C)cc2)C(c2ccc(Cl)cc2)n2nnnc2N1 (configuration not stated) the Potency was inconclusive: 4.47 µM [inhibitor, partial curve].
For Cc1nc(-c2cccnc2)sc1C(=O)Nc1cccc(C(F)(F)F)c1, the Potency was “inactive”.
For Cc1cc(C)c2c(N)c(C(=O)Nc3ncc(C)s3)sc2n1, the Potency was active: 0.199 µM.
In the case of COc1ccc(OCC(=O)NC2CCCCCCC2)cc1, the Potency is reported as “inactive”.
With O=C(NCCC1=CCCCC1)c1ccc2c(c1)N(Cc1ccccc1F)C(=O)c1ccccc1S2(=O)=O the Potency was inconclusive: 8.91 µM [inhibitor, partial curve].
In the case of CCOC(=O)C(C(C)=O)c1c(Br)c(O)c(O)c2c(C(=O)c3ccc(C)cc3)coc12 (configuration not stated), the Potency is reported as “inactive”.
With CCc1cccc(N2C(=O)CS(=O)(=O)C23C(=O)N(Cc2ccc(F)cc2)c2ccc(C)cc23)c1 (configuration not stated) the Potency was inconclusive: 35.5 µM [inhibitor, single point].
With CC(C)c1ccccc1-n1c(SCC(=O)c2ccc3c(c2)NC(=O)CO3)nc2ccccc2c1=O the Potency was inconclusive: 7.08 µM [inhibitor, partial curve, poor fit].
In the case of CCCCN(C)CCNC(=O)CCn1nc(-c2ccc(C)cc2)ccc1=O, the Potency is reported as inconclusive: 35.5 µM [inhibitor, single point].
In the case of O=C(COc1ccc(Br)cc1F)NC1CC1, the Potency is reported as inconclusive: 14.1 µM [activator, single point].
With C=CCN(c1ccccc1)S(=O)(=O)c1cccc(C(=O)Nc2nnc(SCC)s2)c1 the Potency was “inactive”.
In the case of COc1cc(S(=O)(=O)N2CCC(c3nc4ccccc4s3)CC2)ccc1S(=O)(=O)NC1CCCC1, the Potency is reported as inconclusive: 14.6 µM [inhibitor, partial curve, poor fit].
For O=C(Nc1nnc(-c2cccnc2)o1)c1cccc(Cl)c1, the Potency was inconclusive: 3.55 µM [inhibitor, full curve].
With COc1ccc(OCc2cc(C(=O)NCC3(C)COC3)no2)c(Cl)c1 the Potency was inconclusive: 0.794 µM [activator, partial curve, poor fit].
In the case of CC(C)Sc1ncc(Cl)c(C(=O)N(Cc2ccc(F)cc2)C2CCS(=O)(=O)C2)n1 (configuration not stated), the Potency is reported as “inactive”.
In the case of N#Cc1ccccc1Sc1ccccc1C(=O)OCC(=O)N1CCN(C(=O)c2ccco2)CC1, the Potency is reported as inconclusive: 11.2 µM [inhibitor, single point].
For CCN(CC)C(=O)COc1ccc2c(-c3ccccc3)cc(=O)oc2c1, the Potency was inconclusive: 35.5 µM [inhibitor, single point].
For COc1ccc(C(=O)NCc2cc3ccccc3n2C)cc1, the Potency was inconclusive: 6.31 µM [inhibitor, single point].
For c1ccc(-c2cnn3nnnc3n2)cc1, the Potency was “inactive”.
In the case of CCOC(=O)N1CCN(C(=O)c2cccn3c(=O)c4cc(Cl)ccc4nc23)CC1, the Potency is reported as “inactive”.
For CCOC(=O)CNC(=O)/C=C/c1ccc2c(c1)OCO2, the Potency was inconclusive: 35.5 µM [inhibitor, partial curve, poor fit].
For CC(=O)CSc1ccc(-c2nc3ccccc3[nH]2)cn1, the Potency was inconclusive: 4.47 µM [inhibitor, full curve, poor fit].
For CCOc1ccc(Br)cc1CSC(=N)N, the Potency was inconclusive: 3.98 µM [inhibitor, partial curve, poor fit].
